# From publication PMC9837006
# By UniProt entry, the sequences of proteins in these tests, tags left out.
# UniProt Q15561: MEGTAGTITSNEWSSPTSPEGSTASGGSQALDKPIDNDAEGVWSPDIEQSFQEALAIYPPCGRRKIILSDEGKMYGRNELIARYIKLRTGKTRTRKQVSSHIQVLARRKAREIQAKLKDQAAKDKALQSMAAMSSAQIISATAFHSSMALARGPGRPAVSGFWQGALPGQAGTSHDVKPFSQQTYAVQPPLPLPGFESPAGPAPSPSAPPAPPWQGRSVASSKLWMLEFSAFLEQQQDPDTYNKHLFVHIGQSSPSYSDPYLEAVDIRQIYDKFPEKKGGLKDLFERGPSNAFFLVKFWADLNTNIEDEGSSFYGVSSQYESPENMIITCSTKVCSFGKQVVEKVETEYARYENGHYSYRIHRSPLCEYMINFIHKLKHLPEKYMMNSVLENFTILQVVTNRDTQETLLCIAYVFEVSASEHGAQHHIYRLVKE
# UniProt P46937: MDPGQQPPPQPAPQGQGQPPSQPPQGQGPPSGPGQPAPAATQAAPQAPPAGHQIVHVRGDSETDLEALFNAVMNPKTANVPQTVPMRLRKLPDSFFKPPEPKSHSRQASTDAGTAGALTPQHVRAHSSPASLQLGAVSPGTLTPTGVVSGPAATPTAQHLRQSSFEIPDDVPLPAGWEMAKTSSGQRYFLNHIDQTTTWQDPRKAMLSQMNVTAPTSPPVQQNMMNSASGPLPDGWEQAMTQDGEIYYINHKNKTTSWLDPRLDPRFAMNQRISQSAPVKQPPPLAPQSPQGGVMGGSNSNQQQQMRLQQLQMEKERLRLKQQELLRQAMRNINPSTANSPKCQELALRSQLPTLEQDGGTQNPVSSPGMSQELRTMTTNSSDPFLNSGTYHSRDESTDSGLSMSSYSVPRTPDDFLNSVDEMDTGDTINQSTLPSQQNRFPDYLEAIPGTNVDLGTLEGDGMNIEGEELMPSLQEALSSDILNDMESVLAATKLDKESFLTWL
# UniProt Q13887: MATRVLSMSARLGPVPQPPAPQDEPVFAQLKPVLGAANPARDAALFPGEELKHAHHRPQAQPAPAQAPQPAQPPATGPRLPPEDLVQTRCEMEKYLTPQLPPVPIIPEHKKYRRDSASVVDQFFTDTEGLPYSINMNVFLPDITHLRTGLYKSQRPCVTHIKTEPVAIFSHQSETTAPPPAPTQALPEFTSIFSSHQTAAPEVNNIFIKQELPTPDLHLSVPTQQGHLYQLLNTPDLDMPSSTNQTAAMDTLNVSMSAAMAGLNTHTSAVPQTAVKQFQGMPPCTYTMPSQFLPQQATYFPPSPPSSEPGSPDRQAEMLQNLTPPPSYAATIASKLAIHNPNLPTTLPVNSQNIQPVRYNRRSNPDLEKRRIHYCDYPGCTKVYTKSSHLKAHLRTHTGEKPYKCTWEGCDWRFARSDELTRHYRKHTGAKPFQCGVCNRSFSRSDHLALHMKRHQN
# These are yes or no findings as the source states them, for the method shown. In cells and extracts the contact can be indirect. Some binding calls cover weakened binding; strength is not graded here.
# What was measured:
# [1] = target: Myc-TEAD4 (UniProt Q15561); experiment: co-IP; 293T cells transfected with fixed amounts of Myc-TEAD4 and Flag-YAP1 and increasing amounts of HA-KLF5; co-IP and western blot
# [2] = target: YAP1, endogenous (human (endogenous in MCF10A, CAL51, MDA-MB-231)) (UniProt P46937); experiment: proximity ligation; Duolink In Situ Orange Starter Kit Mouse/Rabbit, in CA-SRC MCF10A cells; YAP1 or KLF5 antibody alone as negative control
# [3] = target: 3xFlag-WT-YAP1 (isoform with 504aa) (human) (UniProt P46937); experiment: co-IP; Flag-IP (Anti-Flag M2 magnetic beads) and western blot from CA-SRC cells stably expressing Ctrl, Flag-WT or mut-YAP1
# [4] = target: YAP1, endogenous (human (endogenous in MCF10A, CAL51, MDA-MB-231)) (UniProt P46937); experiment: co-IP; YAP1 and KLF5 antibody reciprocal co-IP with protein A/G magnetic beads, overnight at 4 °C; lysates of CAL51 and MDA-MB-231 cells stably expressing Ctrl or CA-SRC; 50 mM Tris-HCl pH 7.5, 100 mM NaCl, 1% Triton X-100
# [5] = target: exogenous YAP1 in 293T cells (human) (UniProt P46937); experiment: co-IP; exogenous YAP1 and KLF5 in 293T cells with Ctrl or CA-SRC plasmids; Flag/Myc-IP and western blot
substance,measurement,setting,value
HA-KLF5 (from UniProt Q13887 1-457),binding,[1],binds
"Kruppel-like factor 5 (KLF5), endogenous (from UniProt Q13887 1-457)",binding,[2],binds
same,binding,[3],binds
same,binding,[4],binds
exogenous KLF5 in 293T cells (from UniProt Q13887 1-457),binding,[5],binds
